# Source: patent US8883962B2 (Massachusetts Institute of Technology, priority 2012, dated 2014)
# Assay: general procedure: Fmoc solid-phase peptide synthesis; Rink amide AM resin; HATU
# Conditions: whole synthesis, scale 15-μmol
Substance,final HPLC purity (520 nm and 220 nm),final HPLC purity (280 nm and 220 nm)
"Palmitic acid-PPPDDK(ZPI)-CONH2 (N-palmitoyl, ZP1 on Lys, C-amide)",≧95%,–
zinquin-FxrFxrFxr-CONH2,–,≧95%
